Measurements published in PubChem BioAssay AID330 (DTP/NCI, 2004).
The list does not hold the whole screen: it gathers tests that were run many times, whatever their T/C, doses with no T/C, and many T/C values between a quarter and a half above the control. Further doses and runs are listed elsewhere. T/C is the treated group as % of the vehicle group. Some entries give survivors of the animals treated and no T/C: the source files T/C as zero there, which appears to mark a toxic dose or a test without result, not a measured value. Some survivor counts are full or nearly so, which does not show that the dose was tolerated: the source hardly ever lists a survival T/C far under the control, and the zero likely stands for such cases as well. Survivors were counted at the toxicity check, usually on the fifth day, unless a day is given; later deaths do not show. Schedules are NCI's codes, read here as Q, the interval in days (D) or hours (H), X, the number of doses. For survival time, the PubChem record calls one and a half times the control and up active, and a quarter to a half above the control has no call in these data; cut-offs in other NCI protocols can differ. Some T/C values carry the count of animals alive at the toxicity check (mostly the fifth day); where none is given, no animal had died by that day.

Tested on: P388 leukemia ip, CD2F1 mice, survival T/C
Assay: NCI In Vivo Anticancer Drug Screen. Data for tumor model P388 Leukemia (intraperitoneal) in CD2F1 (CDF1) mice
Settings: T/C endpoint: median survival time, higher T/C = longer survival

## O=C1NC(c2cccc3ccccc23)Nc2ccccc21 (stereo not drawn)
dose: 8.0 mg/kg/injection, schedule: Q03HX024 (ip), vehicle: Klucel (hydroxypropylcellulose) (HPC)
  T/C: 130 % of control
dose: 16.0 mg/kg/injection, schedule: Q03HX008 (ip), vehicle: Klucel (hydroxypropylcellulose) (HPC)
  T/C: 143 % of control
dose: 16.0 mg/kg/injection, schedule: Q03HX016 (ip), vehicle: Klucel (hydroxypropylcellulose) (HPC)
  T/C: 144 % of control
dose: 16.0 mg/kg/injection, schedule: Q03HX024 (ip), vehicle: other
  T/C: 130 % of control
dose: 16.0 mg/kg/injection, schedule: Q03HX024 (oral), vehicle: other
  T/C: 126 % of control
dose: 32.0 mg/kg/injection, schedule: Q03HX008 (ip), vehicle: other
  T/C: 125 % of control [9 of 10 alive]
dose: 32.0 mg/kg/injection, schedule: Q03HX016 (ip), vehicle: other
  T/C: 143 % of control [9 of 10 alive]
dose: 32.0 mg/kg/injection, schedule: Q03HX016 (oral), vehicle: other
  T/C: 144 % of control
dose: 32.0 mg/kg/injection, schedule: Q03HX024 (ip), vehicle: Klucel (hydroxypropylcellulose) (HPC)
  survivor count: 10 of 10
dose: 32.0 mg/kg/injection, schedule: Q03HX024 (ip), vehicle: other
  T/C: 128 % of control [8 of 10 alive]
dose: 64.0 mg/kg/injection, schedule: Q01DX009 (sc), vehicle: Klucel (hydroxypropylcellulose) (HPC)
  T/C: 130 % of control
dose: 64.0 mg/kg/injection, schedule: Q01DX009 (sc), vehicle: other
  T/C: 139 % of control
dose: 64.0 mg/kg/injection, schedule: Q03HX008 (ip), vehicle: Klucel (hydroxypropylcellulose) (HPC)
  survivor count: 6 of 10
dose: 64.0 mg/kg/injection, schedule: Q03HX008 (ip), vehicle: other
  survivor count: 1 of 10
dose: 64.0 mg/kg/injection, schedule: Q03HX008 (oral), vehicle: other
  survivor count: 4 of 10
dose: 64.0 mg/kg/injection, schedule: Q03HX016 (ip), vehicle: Klucel (hydroxypropylcellulose) (HPC)
  survivor count: 6 of 10
dose: 64.0 mg/kg/injection, schedule: Q03HX016 (ip), vehicle: other
  survivor count: 4 of 10
dose: 64.0 mg/kg/injection, schedule: Q03HX016 (oral), vehicle: other
  survivor count: 6 of 10
dose: 64.0 mg/kg/injection, schedule: Q03HX024 (ip), vehicle: Klucel (hydroxypropylcellulose) (HPC)
  survivor count: 4 of 10
dose: 64.0 mg/kg/injection, schedule: Q03HX024 (ip), vehicle: other
  survivor count: 0 of 10
dose: 64.0 mg/kg/injection, schedule: Q03HX024 (oral), vehicle: other
  survivor count: 5 of 10
dose: 128.0 mg/kg/injection, schedule: Q01DX009 (ip), vehicle: Klucel (hydroxypropylcellulose) (HPC)
  survivor count: 10 of 10
dose: 128.0 mg/kg/injection, schedule: Q01DX009 (ip), vehicle: other
  T/C: 128 % of control
dose: 128.0 mg/kg/injection, schedule: Q01DX009 (oral), vehicle: other
  T/C: 135 % of control
dose: 128.0 mg/kg/injection, schedule: Q01DX009 (sc), vehicle: Klucel (hydroxypropylcellulose) (HPC)
  T/C: 126 % of control
dose: 128.0 mg/kg/injection, schedule: Q01DX009 (sc), vehicle: other
  survivor count: 10 of 10
dose: 128.0 mg/kg/injection, schedule: Q03HX008 (ip), vehicle: Klucel (hydroxypropylcellulose) (HPC)
  survivor count: 0 of 10
dose: 128.0 mg/kg/injection, schedule: Q03HX008 (ip), vehicle: other
  survivor count: 0 of 10
dose: 128.0 mg/kg/injection, schedule: Q03HX008 (oral), vehicle: other
  survivor count: 0 of 10
dose: 128.0 mg/kg/injection, schedule: Q03HX016 (ip), vehicle: Klucel (hydroxypropylcellulose) (HPC)
  survivor count: 0 of 10
dose: 128.0 mg/kg/injection, schedule: Q03HX016 (ip), vehicle: other
  survivor count: 0 of 10
dose: 128.0 mg/kg/injection, schedule: Q03HX016 (oral), vehicle: other
  survivor count: 0 of 10
dose: 128.0 mg/kg/injection, schedule: Q03HX024 (ip), vehicle: Klucel (hydroxypropylcellulose) (HPC)
  survivor count: 0 of 10
dose: 128.0 mg/kg/injection, schedule: Q03HX024 (ip), vehicle: other
  survivor count: 0 of 10
dose: 128.0 mg/kg/injection, schedule: Q03HX024 (oral), vehicle: Klucel (hydroxypropylcellulose) (HPC)
  T/C: 134 % of control
dose: 128.0 mg/kg/injection, schedule: Q03HX024 (oral), vehicle: other
  survivor count: 0 of 10
dose: 128.0 mg/kg/injection, schedule: Q04DX003 (ip), vehicle: Klucel (hydroxypropylcellulose) (HPC)
  T/C: 142 % of control
dose: 128.0 mg/kg/injection, schedule: Q08DX002 (ip), vehicle: Klucel (hydroxypropylcellulose) (HPC)
  T/C: 129 % of control
dose: 128.0 mg/kg/injection, schedule: Q08DX002 (oral), vehicle: other
  T/C: 127 % of control
dose: 256.0 mg/kg/injection, schedule: Q01DX001 (ip), vehicle: Klucel (hydroxypropylcellulose) (HPC)
  T/C: 129 % of control
dose: 256.0 mg/kg/injection, schedule: Q01DX001 (oral), vehicle: other
  T/C: 135 % of control
dose: 256.0 mg/kg/injection, schedule: Q01DX009 (ip), vehicle: Klucel (hydroxypropylcellulose) (HPC)
  survivor count: 4 of 10
dose: 256.0 mg/kg/injection, schedule: Q01DX009 (ip), vehicle: other
  survivor count: 8 of 10
dose: 256.0 mg/kg/injection, schedule: Q01DX009 (oral), vehicle: other
  survivor count: 3 of 10
dose: 256.0 mg/kg/injection, schedule: Q01DX009 (sc), vehicle: other
  survivor count: 7 of 10
dose: 256.0 mg/kg/injection, schedule: Q04DX003 (sc), vehicle: other
  T/C: 139 % of control
dose: 256.0 mg/kg/injection, schedule: Q08DX002 (ip), vehicle: Klucel (hydroxypropylcellulose) (HPC)
  T/C: 135 % of control
dose: 256.0 mg/kg/injection, schedule: Q08DX002 (oral), vehicle: other
  T/C: 132 % of control [8 of 10 alive]
dose: 512.0 mg/kg/injection, schedule: Q01DX001 (ip), vehicle: Klucel (hydroxypropylcellulose) (HPC)
  T/C: 144 % of control
dose: 512.0 mg/kg/injection, schedule: Q01DX001 (ip), vehicle: other
  survivor count: 5 of 10
dose: 512.0 mg/kg/injection, schedule: Q01DX001 (oral), vehicle: other
  survivor count: 3 of 10
dose: 512.0 mg/kg/injection, schedule: Q04DX003 (ip), vehicle: Klucel (hydroxypropylcellulose) (HPC)
  survivor count: 9 of 10
dose: 512.0 mg/kg/injection, schedule: Q04DX003 (ip), vehicle: other
  survivor count: 5 of 10
dose: 512.0 mg/kg/injection, schedule: Q04DX003 (oral), vehicle: other
  survivor count: 2 of 10
dose: 512.0 mg/kg/injection, schedule: Q04DX003 (sc), vehicle: Klucel (hydroxypropylcellulose) (HPC)
  T/C: 135 % of control
dose: 512.0 mg/kg/injection, schedule: Q04DX003 (sc), vehicle: other
  survivor count: 6 of 10
dose: 512.0 mg/kg/injection, schedule: Q08DX002 (ip), vehicle: other
  survivor count: 3 of 10
dose: 512.0 mg/kg/injection, schedule: Q08DX002 (oral), vehicle: other
  survivor count: 5 of 10
dose: 1024.0 mg/kg/injection, schedule: Q01DX001 (ip), vehicle: Klucel (hydroxypropylcellulose) (HPC)
  survivor count: 4 of 10
dose: 1024.0 mg/kg/injection, schedule: Q01DX001 (ip), vehicle: other
  survivor count: 0 of 10
dose: 1024.0 mg/kg/injection, schedule: Q01DX001 (oral), vehicle: other
  survivor count: 1 of 10
dose: 1024.0 mg/kg/injection, schedule: Q04DX003 (ip), vehicle: Klucel (hydroxypropylcellulose) (HPC)
  survivor count: 2 of 10
dose: 1024.0 mg/kg/injection, schedule: Q04DX003 (ip), vehicle: other
  survivor count: 0 of 10
dose: 1024.0 mg/kg/injection, schedule: Q04DX003 (oral), vehicle: other
  survivor count: 1 of 10
dose: 1024.0 mg/kg/injection, schedule: Q04DX003 (sc), vehicle: other
  survivor count: 0 of 10
dose: 1024.0 mg/kg/injection, schedule: Q08DX002 (ip), vehicle: Klucel (hydroxypropylcellulose) (HPC)
  survivor count: 1 of 10
dose: 1024.0 mg/kg/injection, schedule: Q08DX002 (ip), vehicle: other
  survivor count: 0 of 10
dose: 1024.0 mg/kg/injection, schedule: Q08DX002 (oral), vehicle: other
  survivor count: 1 of 10
